# Measured values reported in PubChem BioAssay AID504834 (National Center for Advancing Translational Sciences (NCATS), 2011).
# Where “and” joins values, the source holds several entries; their conditions need not be identical. Identical values can stand only once. In all, about 320,000 compounds went through this assay and about 22,000 (6.9%) were called active. Inconclusive means that the source gave no clear call. Such entries were picked first, then a sample of the others. Calls come from the whole dose curve; as a rule, active = well fitted inhibition curve with a large enough effect; inconclusive = small, poorly fitted or top-dose-only effect, or another doubt; inactive = no such curve, though single readings can be large or run the other way. Potencies beside an inconclusive call are fits to weak or partial responses and may not hold up.
# Assay: Primary qHTS for delayed death inhibitors of the malarial parasite plastid, 96 hour incubation
# Details: P. falciparum luciferase reporter growth; series mostly up to 28.7 µM
# Outline: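 Parasite growth measured via integrated firefly luciferase reporter in P. falciparum. Infected erythrocytes at 2% hematocrit, 0.05% parasitemia final were treated 96 hours at 37 C under 5% CO2, and luminescence was read.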
# Potency is the fitted concentration of half-maximal effect.
row,SMILES,Potency
1,O=C(Nc1ccc(Cl)cc1F)C1CC(=O)N(Cc2ccco2)C1 (stereo not drawn),inactive
2,CC(C)(C)C(=O)CC(=O)Nc1ccc(Cl)c(N)c1,"inconclusive: 0.185 µM [inhibitor, full curve, poor fit]"
3,N=c1c2c(n(Cc3ccc(F)cc3)c3c1CCC3)CCC2,inactive
4,Cc1ccc(-c2csc3nc(CN(C)Cc4ccccc4)[nH]c(=O)c23)cc1,active: 4.15 µM
5,CC(=O)Nc1ccc(NC(=O)c2ccc(NC(=O)c3ccccc3)cc2)cc1,"inconclusive: 11.7 µM [inhibitor, single point]"
6,O=C1/C(=C\c2ccc3c(c2)OCO3)N2CCC1CC2,"inconclusive: 13.1 µM [inhibitor, single point]"
7,CN(CCOc1ccc(Cl)cc1)Cc1cccc(S(=O)(=O)N(C)C)c1,"inconclusive: 18.5 µM [inhibitor, single point]"
8,Cc1cc(C)c(C#N)c(Sc2ccccc2N)n1,"inconclusive: 0.928 µM [inhibitor, partial curve, poor fit]"
9,COc1cc(/C=N/NC(=O)CCc2c(C)n[nH]c2C)cc(OC)c1OC,"inconclusive: 18.5 µM [inhibitor, single point]"
10,Cc1ccc(NCc2nnc(SCC(N)=O)n2CC2CCCO2)c(C)c1 (stereo not drawn),active: 13.1 µM
11,O=C(CCc1nnc2ccc(N3CCCCC3)nn12)NCc1ccco1,"inconclusive: 18.5 µM [inhibitor, single point]"
12,CCCc1nc(-c2cc3ccccc3[nH]c2=O)no1,"inconclusive: 13.1 µM [inhibitor, single point]"
13,CC(C(=O)N1CCN(c2ccccc2)CC1)c1ccc([N+](=O)[O-])cc1 (stereo not drawn),active: 13.1 µM
14,Cc1cc(NCCCN2CCOCC2)n2nc(C)c(-c3ccc(F)cc3)c2n1,inactive
15,N#CCCn1cc(/C=N/O)c(-c2ccc(Cl)cc2)n1,"inconclusive: 2.94 µM [inhibitor, single point]"
16,COCCCNC(=O)C(C)N1c2cccc3cccc(c23)S1(=O)=O (stereo not drawn),inactive
17,CC1COC(=O)C(NNc2ccc(Cl)c(Cl)c2)=N1 (stereo not drawn),inactive
18,COCCNC(=O)CSc1nc2nn(-c3ccccc3)c(=O)c-2c2n1CCCCC2,"inconclusive: 9.28 µM [inhibitor, partial curve, poor fit]"
19,O=C1CCC(C(=O)Nc2ccccc2N2CCOCC2)=NN1,inactive
20,O=C(COc1cccc2cccnc12)Nc1cccc(S(=O)(=O)N2CCCC2)c1,"inconclusive: 13.1 µM [inhibitor, single point]"
21,CCc1ccccc1NC(=O)C1CCCN1S(=O)(=O)c1ccc(-c2ccc(=O)[nH]n2)s1 (stereo not drawn),"inconclusive: 1.17 µM [inhibitor, partial curve, poor fit]"
22,C#CCOCCOCCOCCNc1nc(N2CCN(C(=O)[C@H](CCCCN)n3cc(CCC(=O)O)nn3)CC2)nc(N2CCN(C(=O)[C@H](CCCCN)n3cc(CC(C)O)nn3)CC2)n1 (stereo partly drawn),inactive
23,Cc1c(NC(=O)COc2ncnc3ccccc23)c(=O)n(-c2ccccc2)n1C,"inconclusive: 10.4 µM [inhibitor, partial curve]"

row,SMILES,Potency
1,CC(C)(CO)[C@@H](O)C(=O)NCCC(=O)O,inactive
2,CCc1cccc(OCCCCNCCOC)c1,"inconclusive: 11.7 µM [inhibitor, partial curve, poor fit]"
3,N#C/C(=C\c1ccc([N+](=O)[O-])o1)C(=O)Nc1ccc(F)cc1,inactive
4,COc1ccc(-c2cn[nH]c2-c2ccc(OCC(=O)NN)cc2O)cc1,"inconclusive: 18.5 µM [inhibitor, single point]"
5,C#CCN1C(=O)S/C(=C\c2cc3c(cc2OC)OCO3)C1=O,"inconclusive: 18.5 µM [inhibitor, single point]"
6,CCC1CCCCN1CCCNC(=O)CNC(=O)c1nn(-c2ccc(OC)cc2)c(=O)c2ccccc12 (stereo not drawn),"inconclusive: 18.5 µM [inhibitor, partial curve, poor fit]"
7,Cc1ccc(-n2cc(CN3CCC(CO)(Cc4cccc(C(F)(F)F)c4)CC3)cn2)cc1,"inconclusive: 1.85 µM [inhibitor, partial curve]"
8,Cc1ccc(CCNC(=O)C2CCCN(S(=O)(=O)c3cccc4nsnc34)C2)cc1 (stereo not drawn),active: 4.15 µM
9,CC1CCN(S(=O)(=O)c2ccc3c(ccn3CC(=O)O)c2)CC1,inactive
10,CC1CCC(N2CCN(c3ccc([N+](=O)[O-])cc3)CC2)CC1 (stereo not drawn),inactive
11,COc1cccc(C(=O)Nc2nnc(S(=O)(=O)N3CCCCC3)s2)c1,inactive
12,COc1cccc(-n2c(SCc3cc(=O)oc4cc(O)c(O)cc34)nc3ccccc3c2=O)c1,"inconclusive: 18.5 µM [inhibitor, single point]"
13,CC(C)[C@H](NC(=O)NCc1ccc(Cl)cc1)C(=O)O,"inconclusive: 13.1 µM [inhibitor, partial curve, poor fit]"
14,O=C(N/N=C/c1ccccc1F)C(=O)N1CCCCCC1,"inconclusive: 13.1 µM [inhibitor, single point]"
15,CSCCC(NC(=O)COc1ccccc1)C(=O)N(C)Cc1ccc(SC)cc1 (stereo not drawn),"inconclusive: 13.1 µM [inhibitor, partial curve, poor fit]"
16,C=CCn1c(=NC(=O)c2ccccc2[N+](=O)[O-])sc2cc(S(C)(=O)=O)ccc21,active: 9.28 µM
17,COc1ccc(Cn2nnnc2C(c2ccccc2)N2CCN(C3CCCC3)CC2)cc1 (stereo not drawn),inactive
18,Cc1ccc(-c2nc(CS(=O)CC(=O)NCCN(CC(C)C)CC(C)C)c(C)o2)cc1 (stereo not drawn),inactive
19,COc1ccccc1-n1cnnc1SC(C)C(=O)Nc1cccc([N+](=O)[O-])c1 (stereo not drawn),"inconclusive: 18.5 µM [inhibitor, single point]"
20,COc1ccc(Nc2nc(N3CCOCC3)nc(N3CCOCC3)n2)cc1Cl,inactive
21,CC(C)(C)c1ccc(-n2nc(C#N)c(Cl)cc2=O)cc1,"inconclusive: 11.7 µM [inhibitor, single point]"
22,O=c1c2c(nc3c(-c4cccc(Br)c4)c[nH]n13)CCCC2,"inconclusive: 13.1 µM [inhibitor, partial curve]"
23,O=C(c1ccc(F)cc1)N1CCC(C(=O)N(Cc2ccccc2)c2ccccc2)CC1,"inconclusive: 18.5 µM [inhibitor, single point]"

row,SMILES,Potency
1,O=C(COc1cccnc1[N+](=O)[O-])Nc1cccc2ccccc12,"inconclusive: 18.5 µM [inhibitor, single point]"
2,CCN(CC)c1ccc(C(=O)N/N=C(\C)c2ccc(OC)c(OC)c2)cc1,"inconclusive: 2.94 µM [inhibitor, partial curve, poor fit]"
3,COc1cccc(OC)c1C(=O)NC(=S)Nc1ccc2c(c1)OCCO2,"inconclusive: 13.1 µM [inhibitor, single point]"
4,COc1ccc(N2C(=O)CC(NC3CCCCNC3=O)C2=O)cc1 (stereo not drawn),"inconclusive: 18.5 µM [inhibitor, single point]"
5,COc1ccc(N(C(=O)CNC(=O)c2ccco2)C(C(=O)NCC2CCCO2)c2ccccc2)cc1 (stereo not drawn),"inconclusive: 11.7 µM [inhibitor, single point]"
6,Cc1cc(C)cc(NC(=O)C2CCCN2S(=O)(=O)c2cccc3cccnc23)c1 (stereo not drawn),"inconclusive: 11.7 µM [inhibitor, single point]"
7,Cc1ccc(C)c(C(=O)CSc2n[nH]c(C)n2)c1,"inconclusive: 9.28 µM [inhibitor, single point]"
8,CC(C)(C)C(=O)Cn1c(NCCCO)nc2ccccc21,active: 11.7 µM
9,COc1ccc(C(=O)NCc2ccccc2OC)cc1,active: 5.22 µM
10,COCCn1c(SCC(=O)N2CCCC(C)C2)nnc1-c1ccco1 (stereo not drawn),"inconclusive: 13.1 µM [inhibitor, partial curve, poor fit]"
11,CC1CCN(C(c2ccccc2)c2nnnn2C(C)(C)C)CC1 (stereo not drawn),inactive
12,C[C@@H]1C[C@H]2[C@@H]3CCC4=CC(=O)C=C[C@]4(C)[C@@]3(F)[C@@H](O)C[C@]2(C)[C@H]1C(=O)CO,active: 12 µM and active: 9.28 µM
13,FC(F)(F)c1nnc2c3ccccc3c(Cl)nn12,"inconclusive: 2.62 µM [inhibitor, full curve, poor fit]"
14,COc1cccc(C(=O)Cn2c(NCCO)nc3ccccc32)c1,"inconclusive: 2.94 µM [inhibitor, partial curve, poor fit]"
15,Cc1ccc(S(=O)(=O)NCC(c2ccccc2)N2CCN(c3ccc(F)cc3)CC2)cc1 (stereo not drawn),"inconclusive: 1.65 µM [inhibitor, full curve, poor fit]"
16,COc1cc(C(CC(=O)N2CCCC2)c2c(OC)cc(OC)c3ccc(=O)oc23)cc(OC)c1OC (stereo not drawn),active: 13.1 µM
17,CCOC(=O)CN1C(=O)CCSc2ccc(Cl)cc21,"inconclusive: 4.15 µM [inhibitor, partial curve, poor fit]"
18,CC1(C)CC(=NO)CC(C)(C)N1,"inconclusive: 8.28 µM [inhibitor, partial curve, poor fit]"
19,COc1ccc(Br)c2oc(SC)cc(=O)c12,"inconclusive: 10.4 µM [inhibitor, single point]"
20,COc1ccc(C(=O)N2CCN(S(=O)(=O)c3ccc(C)cc3)CC2)cc1S(=O)(=O)N1CCOCC1,"inconclusive: 9.28 µM [inhibitor, single point]"
21,CC(=O)N1N=C(c2cccnc2)CC1c1ccccc1O (stereo not drawn),"inconclusive: 18.5 µM [inhibitor, single point]"
22,COC(=O)C1=C(c2ccc(F)cc2OCc2ccccc2)C[C@@H]2CC[C@H]1N2C(=O)NCc1ccccc1OC,"inconclusive: 1.85 µM [inhibitor, full curve]"
